Measurements: PubChem BioAssay AID1347131 (National Center for Advancing Translational Sciences (NCATS), 2019)
In all, about 410,000 compounds went through this assay and about 2,000 (0.49%) were called active. The shares of active, inactive and inconclusive entries below differ from those in the screen. Calls follow the shape of the full dose curve; tested in HEK293 reporter line. A potency beside an inconclusive call is a rough fit, not a confirmed value.

experiment: qHTS Assay for Foot and Mouth Disease Virus Antivirals: Primary Screen against the MLPCN compound library; details: FMDV antiviral cell-based qHTS; activity, negative = inhibition: at 57.9 µM (top of the series); also: nearly all actives have a fitted effect of over 55% in size
Potency is read from the fitted curve at half-maximal effect.

| SMILES | activity, negative = inhibition | Potency |
| --- | --- | --- |
| CC(=O)c1cccc(NS(=O)(=O)c2ccc(N/C=C\C(=O)c3ccc(C)cc3)cc2)c1 | inactive: -30.2% | – |
| C#CCN(C[C@@H]1[C@@H](OC(=O)NCc2ccco2)[C@@H](OC(=O)NCc2ccco2)Cn2c(=O)n(CCCCCC)c(=O)n21)S(=O)(=O)c1ccc(C)cc1 | – | inconclusive: 28.2 µM [inhibitor, partial curve, poor fit] |
| CC(=O)c1c(C)[nH]c(C(=O)COC(=O)c2ccc3c(=O)n4c(nc3c2)CCC4)c1C | – | inconclusive: 4.47 µM [inhibitor, partial curve, poor fit] |
| COC(=O)c1cc(S(=O)(=O)N2CCN(c3cccc(C)c3)C(C)C2)c[nH]1 (stereo not drawn) | – | inconclusive: 5.01 µM [inhibitor, partial curve] |
| COc1ccc(C(CC(=O)Nc2cc([N+](=O)[O-])ccc2OC)c2ccccc2)cc1 (stereo not drawn) | inactive: -39% | – |
| O=C(Nc1onc2c1CCCC2)c1ccc(Cl)cc1 | – | inconclusive: 39.8 µM [inhibitor, single point] |
| O=C(CSc1ncnc2c1cnn2-c1ccccc1Cl)N1CCN(C(=O)c2ccco2)CC1 | – | inconclusive: 35.5 µM [inhibitor, single point] |
| O=C1C(=O)c2ccccc2-c2ccccc21 | – | inconclusive: 5.62 µM [inhibitor, full curve, poor fit] |
| Cc1ccc(-c2[nH]c3ccccc3c2SCCNC(=O)c2ccc(S(=O)(=O)N(C)C)cc2)cc1 | – | inconclusive: 8.91 µM [inhibitor, partial curve, poor fit] |
| CC1(C)Cc2ccccc2-c2nnc(-c3ccc4ccccc4n3)n21 | inactive: -33.4% | – |
| COc1ccc(NC(=O)CCCSc2nc(-c3ccco3)cc(C(F)(F)F)n2)c(OC)c1 | – | inconclusive: 3.55 µM [inhibitor, partial curve] |
| O=C(COc1ccc(Cl)cc1Cl)Nc1ccc2nc3n(c(=O)c2c1)CCCC3 | inconclusive: -41.8% [inhibitor] | – |
| CC1(c2ccc3ccccc3c2)NC(=O)N(CC(=O)Nc2cccc(S(=O)(=O)N3CCOCC3)c2)C1=O (stereo not drawn) | – | inconclusive: 35.5 µM [inhibitor, partial curve, poor fit] |
| O=C(c1ccco1)N1CCN(c2c([N+](=O)[O-])nn(-c3cccc(Cl)c3)[n+]2[O-])CC1 | inactive: -33.5% | – |
| CCN=C1S/C(=C\c2cc(OCC)c(O)cc2Br)C(=O)N1CC | – | inconclusive: 31.6 µM [inhibitor, single point] |
| O=C1OCCC1Sc1nnc(-c2ccc3c(c2)OCO3)o1 (stereo not drawn) | – | inconclusive: 1.26 µM [inhibitor, full curve] |
| COCCn1c(C)cc(C(=O)CSc2nnc3ccccn23)c1C | – | inconclusive: 14.1 µM [inhibitor, single point] |
| NC(N)=N/N=C/c1ccc(N(c2ccccc2)c2ccccc2)cc1 | – | inconclusive: 31.6 µM [inhibitor, partial curve, poor fit] |
| NC(=O)COc1ccccc1/C=C1/SC(=O)N(CC(=O)N2CCc3ccccc3C2)C1=O | inactive: -38% | – |
| CCCCc1c(-c2ccccc2OC)ncn1Cc1ccc(-c2ccccc2)cc1 | – | inconclusive: 28.2 µM [inhibitor, partial curve, poor fit] |

| SMILES | activity, negative = inhibition | Potency |
| --- | --- | --- |
| O=[N+]([O-])c1cccc(C=NNc2ccc3ccccc3n2)c1O | – | inconclusive: 10 µM [inhibitor, partial curve, poor fit] |
| CCCCCCN1CCN(C2CN(CCc3ccccc3)S(=O)(=O)C2)CC1 (stereo not drawn) | – | inconclusive: 28.2 µM [inhibitor, partial curve, poor fit] |
| COc1ccc(N2CCN(C(=O)c3ccc(COc4ccc([N+](=O)[O-])cc4)o3)CC2)cc1 | – | inconclusive: 28.2 µM [inhibitor, partial curve, poor fit] |
| CC(Sc1nc2ccccc2c(=O)n1CC1CCCO1)C(=O)N(C)c1ccccc1 (stereo not drawn) | inactive: -30.8% | – |
| O=C(C[C@H]1C/C=C\CC[C@H](Cc2ccc(F)cc2)C(=O)O[C@@H](c2ccccc2)CNC1=O)N[C@@H](CO)Cc1ccccc1 | – | inconclusive: 6.31 µM [inhibitor, partial curve] |
| C/C(=C\C(=O)c1ccc(F)cc1)Nc1ccc(N2CCOCC2)cc1 | – | inconclusive: 31.6 µM [inhibitor, partial curve, poor fit] |
| CC(C)(C)C(=O)Nc1nc(-c2ccccc2)ns1 | – | inconclusive: 39.8 µM [inhibitor, single point] |
| CCOC(=O)c1c(-c2ccc(C)cc2)csc1NC(=O)CCN1CC(C)OC(C)C1 (stereo not drawn) | – | inconclusive: 28.2 µM [inhibitor, partial curve, poor fit] |
| CCS(=O)(=O)N1CCN(C(=O)c2ccc(-c3ccccc3)cc2)CC1 | – | inconclusive: 20 µM [inhibitor, single point] |
| COc1ccc(CNC(=O)c2cccc3c(-c4cnn(C)c4)coc23)cc1OC | – | inconclusive: 15.8 µM [inhibitor, partial curve, poor fit] |
| Cc1ccc(C)c(Sc2ccc(NC(=O)CCl)cc2)c1 | – | inconclusive: 20 µM [inhibitor, partial curve, poor fit] |
| Cc1ccccc1CN1C2=NCCN2c2ccccc21 | inactive: -33.6% | – |
| O=C1C=C(Nc2cccc3cccnc23)c2ccccc2C1=O | – | inconclusive: 28.2 µM [inhibitor, partial curve, poor fit] |
| O=C1CCC2(CCCC2)c2ccccc21 | – | inconclusive: 3.16 µM [inhibitor, partial curve, poor fit] |
| CCn1c(C(=O)OC)cc2c1ccn2-c1ccc(F)cc1 | – | inconclusive: 39.8 µM [inhibitor, single point] |
| OC[C@@H]1CN(Cc2ccc(Cl)cc2)C[C@H](n2cnc3c(NC4CCCC4)ncnc32)O1 | inactive: -33.7% | – |
| CC(C)CC(C(=O)NC1CCCCC1)N(Cc1cccs1)C(=O)c1snc(C(N)=O)c1N (stereo not drawn) | inconclusive: -33.9% [inhibitor] | – |
| COc1ccc(OC)c(CCNC(=O)CS(=O)(=O)Cc2nc(-c3ccc(C)cc3)oc2C)c1 | – | inconclusive: 20 µM [inhibitor, single point] |
| Cc1cn([C@@H](CCCCNC(=O)OC(C)(C)C)C(=O)NCCCCCCCCCCC(=O)N2CCN(C(=O)OC(C)(C)C)CC2)nn1 | – | inconclusive: 11.2 µM [inhibitor, partial curve, poor fit] |
| CC(C)Nc1nc(NC(C)C)nc(N(C#N)CCOc2ccc(Cl)cc2Cl)n1 | – | inconclusive: 28.2 µM [inhibitor, single point] |

| SMILES | activity, negative = inhibition | Potency |
| --- | --- | --- |
| Cc1cc(SCC(=O)c2ccccc2)nc(SCC(=O)c2ccccc2)n1 | – | inconclusive: 28.2 µM [inhibitor, single point] |
| CCc1nc2scc(-c3ccccc3)c2c(=O)n1N | – | inconclusive: 8.91 µM [inhibitor, partial curve, poor fit] |
| COC(=O)c1cc(=O)n(Cc2ccc3c(c2)OCO3)c(=Nc2ccccc2)s1 | – | inconclusive: 35.5 µM [inhibitor, partial curve, poor fit] |
| O=C1NC(=S)NC(=O)C1=Cc1cccn1-c1ccc(O)cc1 | – | inconclusive: 20 µM [inhibitor, partial curve, poor fit] |
| O=C(Nc1ccc2[nH]ccc2c1)c1ccccc1 | – | inconclusive: 20 µM [inhibitor, single point] |
| COc1ccc(/C=C2\SC(=O)N(CCNC(=O)Cc3coc4cc(C)ccc34)C2=O)cc1OC | – | inconclusive: 39.8 µM [inhibitor, partial curve, poor fit] |
| COc1ccc(NC(=O)c2cc([N+](=O)[O-])ccc2O)cc1 | – | inconclusive: 6.31 µM [inhibitor, full curve, poor fit] |
| COc1cnc(-c2ccccn2)nc1Oc1ccc(Cl)c2ccccc12 | – | inconclusive: 3.16 µM [inhibitor, partial curve, poor fit] |
| COc1ccc(C(=O)N2CCN(c3ccc([N+](=O)[O-])c(NCCc4ccc(OC)c(OC)c4)c3)CC2)cc1 | – | inconclusive: 8.91 µM [inhibitor, partial curve, poor fit] |
| COc1ccc(NC(=O)CN(C)CC(=O)N(C)C2(C#N)CCC(C)CC2)cc1 (stereo not drawn) | – | inconclusive: 3.98 µM [inhibitor, full curve] |
| O=C(Nc1ccc(Cl)c(S(=O)(=O)N2CCOCC2)c1)c1cn2ccccc2n1 | – | inconclusive: 20 µM [inhibitor, partial curve, poor fit] |
| CCc1ccccc1N1CC(c2nc3ccccc3n2CCOc2ccc(Cl)c(C)c2)CC1=O (stereo not drawn) | – | inconclusive: 28.2 µM [inhibitor, partial curve, poor fit] |
| Brc1ccc(C2C3=C(Nc4ncnn42)c2ccccc2OC3c2ccncc2)cc1 (stereo not drawn) | – | active: 17.8 µM |
| CCOC(=O)c1oc2ccccc2c1NC(=O)c1cc(OC)cc(OC)c1 | – | inconclusive: 17.8 µM [inhibitor, partial curve, poor fit] |
| NC(=O)C1CCN(C2=C(Cl)C(=O)c3ccccc3C2=O)CC1 | – | inconclusive: 22.4 µM [inhibitor, partial curve, poor fit] |
| CN(C)c1ccc(C(C[N+](=O)[O-])c2c(N)n(C)c(=O)n(C)c2=O)c(F)c1C#N (stereo not drawn) | – | inconclusive: 35.5 µM [inhibitor, partial curve, poor fit] |
| Cn1c(=O)c(=O)n(C)c2cc(S(=O)(=O)N3CCc4ccccc43)ccc21 | – | inconclusive: 14.1 µM [inhibitor, partial curve, poor fit] |
| Cc1cc(C(=O)CCl)c(C)n1CCc1ccc(Cl)cc1 | – | inconclusive: 22.4 µM [inhibitor, partial curve, poor fit] |

Copied from the list.
Entry for Cc1cn([C@@H](CCCCNC(=O)OC(C)(C)C)C(=O)NCCCCCCCCCCC(=O)N2CCN(C(=O)OC(C)(C)C)CC2)nn1 under Potency: inconclusive: 11.2 µM [inhibitor, partial curve, poor fit]
Entry for C/C(=C\C(=O)c1ccc(F)cc1)Nc1ccc(N2CCOCC2)cc1 under Potency: inconclusive: 31.6 µM [inhibitor, partial curve, poor fit]
Entry for COc1ccc(OC)c(CCNC(=O)CS(=O)(=O)Cc2nc(-c3ccc(C)cc3)oc2C)c1 under Potency: inconclusive: 20 µM [inhibitor, single point]
Entry for CC(=O)c1c(C)[nH]c(C(=O)COC(=O)c2ccc3c(=O)n4c(nc3c2)CCC4)c1C under Potency: inconclusive: 4.47 µM [inhibitor, partial curve, poor fit]
Entry for Brc1ccc(C2C3=C(Nc4ncnn42)c2ccccc2OC3c2ccncc2)cc1 (stereo not drawn) under Potency: active: 17.8 µM
